No constants are given. Whether binding was seen depends on the method and setting. Some entries that bind do so weakly or less than the wild type.

The chains behind the UniProt entries cited, without tags or fusion partners. Where a name states a change or a piece, a line headed by the entry shows the natural chain unless it says otherwise.
UniProt Q62190: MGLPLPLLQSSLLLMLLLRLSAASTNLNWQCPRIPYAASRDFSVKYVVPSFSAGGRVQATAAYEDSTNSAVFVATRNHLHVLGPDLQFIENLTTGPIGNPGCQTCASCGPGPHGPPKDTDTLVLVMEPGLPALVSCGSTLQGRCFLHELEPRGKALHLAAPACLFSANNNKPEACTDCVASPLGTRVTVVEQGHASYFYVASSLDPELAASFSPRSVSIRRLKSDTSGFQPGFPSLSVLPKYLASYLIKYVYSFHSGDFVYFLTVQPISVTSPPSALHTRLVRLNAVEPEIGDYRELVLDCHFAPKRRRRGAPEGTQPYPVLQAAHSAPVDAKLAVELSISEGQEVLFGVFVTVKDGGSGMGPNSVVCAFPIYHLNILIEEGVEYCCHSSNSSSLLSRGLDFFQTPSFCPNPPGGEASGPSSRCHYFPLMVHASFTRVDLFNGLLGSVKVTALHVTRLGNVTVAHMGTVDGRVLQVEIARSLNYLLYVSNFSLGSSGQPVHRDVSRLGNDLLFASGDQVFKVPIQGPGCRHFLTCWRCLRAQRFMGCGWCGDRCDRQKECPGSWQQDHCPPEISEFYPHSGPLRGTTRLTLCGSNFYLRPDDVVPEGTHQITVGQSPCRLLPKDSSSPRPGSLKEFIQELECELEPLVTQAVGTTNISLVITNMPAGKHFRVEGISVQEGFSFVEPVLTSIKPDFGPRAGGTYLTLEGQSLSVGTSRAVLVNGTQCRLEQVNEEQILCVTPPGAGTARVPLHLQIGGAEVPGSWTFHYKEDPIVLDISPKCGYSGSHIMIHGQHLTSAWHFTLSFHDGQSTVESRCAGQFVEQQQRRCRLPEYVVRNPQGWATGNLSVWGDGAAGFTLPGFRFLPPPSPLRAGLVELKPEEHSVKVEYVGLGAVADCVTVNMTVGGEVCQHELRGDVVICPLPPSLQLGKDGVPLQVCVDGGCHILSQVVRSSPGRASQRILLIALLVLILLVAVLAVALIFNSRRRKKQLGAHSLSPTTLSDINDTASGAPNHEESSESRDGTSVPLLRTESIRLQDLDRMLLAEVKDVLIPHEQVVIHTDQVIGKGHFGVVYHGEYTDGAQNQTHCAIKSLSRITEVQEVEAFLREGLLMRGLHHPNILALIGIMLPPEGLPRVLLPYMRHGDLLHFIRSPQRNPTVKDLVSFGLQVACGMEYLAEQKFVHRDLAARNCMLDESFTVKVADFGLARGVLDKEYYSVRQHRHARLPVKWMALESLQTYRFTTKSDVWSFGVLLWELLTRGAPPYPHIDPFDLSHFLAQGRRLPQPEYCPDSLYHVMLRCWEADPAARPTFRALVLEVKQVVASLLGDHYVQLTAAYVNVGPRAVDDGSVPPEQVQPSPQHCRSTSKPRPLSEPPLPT

Among the data in patent US20120034215A1 (Daiichi Sankyo, published 2012) are binding values, retold here.

The target of this experiment is mouse MST1R with N-terminal Flag tag, expressed on HEK293T cells (mouse) (UniProt Q62190). Nature of the experiment: flow cytometry on transfected HEK293T cells, 2 ug/ml IgG1.

B1: MOR07919 (human IgG1) (antibody, V domains shown)
VH: QVQLVQSGAEVKKPGESLKISCKGSGYSFTNYWISWVRQMPGKGLEWMGFIYPDDSYTRYSPSFQGQVTISADKSISTAYLQWSSLKASDTAMYYCARFSYRHYLDMDDHWGQGTLVTVSS
VL: DIELTQPPSVSVAPGQTARISCSGDSLGSKYVHWYQQKPGQAPVLVIYRDNKRPSGIPERFSGSNSGNTATLTISGTQAEDEADYYCQSYDATEFTYVFGGGTKLTVLG
As to B1, the binding entry is on record as “binds”.
